Test results from PubChem BioAssay AID2417 (National Center for Advancing Translational Sciences (NCATS), 2010).
Where “and” joins values, the source holds several entries; their conditions need not be identical. Equal entries are not always repeated. About 4,300 (3.1%) of roughly 140,000 compounds were called active. The inconclusive results got no clear call from the source; some entries with a clear call stand among them for comparison.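 How the source made its calls: active means readout at or below -70, meaning at least 70% loss of cells showing the perinucleolar compartment, a nuclear body marking cancer cells; inconclusive means readout between -30 and a set limit; inactive means the rest.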 Some compounds were tested as several samples or in several runs, with calls that do not always agree.

experiment: High Content Assay for Compounds that inhibit the Assembly of the Perinucleolar Compartment; details: PC3M PTB-GFP, PNC prevalence imaging, 16 h; at 10 µM; stronger effect = lower value;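 further: plate controls were DMSO wells for no effect and camptothecin positive control wells for full effect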
In short: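 Read-out is percentage of cells bearing a perinucleolar compartment, from automated 20x imaging of fixed, Hoechst-stained PC3M PTB-GFP cells. Cells were seeded 4 h, then exposed 16 h to compound (23 nl of library stock) in duplicate plates.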

| SMILES | activity change (PNC), negative = inhibition |
| --- | --- |
| O=C(Cn1cc(C(=O)c2ccco2)c2ccccc21)NC1CCCC1 | inconclusive: -44.9% |
| COC(=O)N/N=C/c1c(C)nn(-c2cccc(Cl)c2)c1Cl | active: -94.2% |
| COc1ccccc1Nc1ccc(Nc2ccccc2OC)nn1 | inconclusive: -59.3% |
| Cc1ccc2nc(-c3ccccn3)cc(C(=O)NC3CCN(C)CC3)c2c1 | inconclusive: -55.8% |
| CCOC(=O)C1CCCN(C(=O)c2cc(Nc3ccc(OC)c(OC)c3)nc3ccccc23)C1 (stereo unspecified) | inactive: 85.3% |
| CCOCCCNC(=O)c1cccs1 | inconclusive: -46.1% |
| Cc1cc(C)c2c(N)c(S(=O)c3ccc(C(C)(C)C)cc3)sc2n1 (stereo unspecified) | inactive: -15.4% |
| CN(C)c1ccc(NC2=C(Cl)C(=O)c3ccccc3C2=O)cc1 | inactive: 26.3% |
| Cc1cc[n+](C2=C([O-])c3ccccc3C(=O)/C2=N\S(=O)(=O)c2cccs2)cc1C | inconclusive: -62.9% |
| CCCCOc1cc(C(=O)NCCN(CC)CC)c2ccccc2n1 | inactive: 1.81% and active: -115% |
| COc1cc(C(=S)N2CCCCC2)ccc1OCC(=O)N1CCCC1 | inconclusive: -62% |
| O=C(CSc1nc(O)cc(=O)[nH]1)Nc1ccc2c(c1)CCC2 | inconclusive: -39.3% |
| Cc1nn(C)cc1/C=N/NC(=O)c1ccc2c(c1)OCO2 | inconclusive: -37.6% |
| Cc1nc2ccccc2c(=O)n1/N=C/c1cccnc1 | inconclusive: -35.3% |
| CC(=O)c1ccc(NC(=O)COC(=O)c2ccccc2N=Nc2ccc(N(C)C)cc2)cc1 | inactive: -27.1% |
| CC(C)(C)OC(=O)NCCCC(CCCNC(=O)OC(C)(C)C)C(=O)O | inconclusive: -74.8% |
| COC(=O)c1ccc(C(=O)OC)c(NC(=S)N2CCN(c3ccc(F)cc3)CC2)c1 | inconclusive: -46.5% |
| COC(=O)c1sc(NC(=O)COc2ccccc2OC)nc1C | inconclusive: -58.9% |
| Cc1ccc(-c2nnc(-c3ccccc3)o2)cc1 | inconclusive: -49.6% |
| N#C/C(=C1\CCCN1)c1nc2ccccc2c(=O)[nH]1 | inactive: 17.4% |
| Cc1ccc(NC(=O)COC(=O)Cc2csc(-c3cccc(F)c3)n2)cc1C | inconclusive: -76.8% |
| CC(=O)c1cccc(NS(=O)(=O)c2ccc(N/C=C\C(=O)c3ccc(F)cc3)cc2)c1 | inconclusive: -39.7% |
| CSCCOC(=O)c1[nH]c2c(c1C)C(=O)CC(c1ccco1)C2 (stereo unspecified) | active: -90.3% |

| SMILES | activity change (PNC), negative = inhibition |
| --- | --- |
| CCOC(=O)N1CCN(C(=O)c2cccc(NC3=NC4CS(=O)(=O)CC4S3)c2)CC1 (stereo unspecified) | inconclusive: -32.5% |
| CC(C)Oc1cc(O)c2c(=O)c(-c3ccc(O)cc3)coc2c1 | inconclusive: -59.3% |
| COc1ccccc1OCC(=O)n1cc(C(=O)c2cc(Cl)cc(Cl)c2O)cn1 | inconclusive: -60.7% |
| CCCCCC(C)NC(=O)c1ccoc1C (stereo unspecified) | inconclusive: -38.4% |
| COc1ccc(C(O)(C(=O)NNc2ccc(C)cc2)c2cccs2)cc1 (stereo unspecified) | inconclusive: -37.5% |
| Cc1cccc(N2C(=O)/C(=C\c3ccc(OC(F)F)cc3)c3ccccc3C2=O)c1 | inactive: -12.7% |
| CCOC(=O)c1ccc(NC(=S)NC(=O)c2nn(CC)cc2Br)cc1 | inconclusive: -48.3% |
| C/C(=N\OCC(=O)Nc1ccccc1C(C)(C)C)c1ccc2c(c1)OCCO2 | inconclusive: -56.2% |
| O=C(COc1cccc2ccccc12)NNC(=O)C1CCCO1 (stereo unspecified) | inconclusive: -34.6% |
| CCCn1c(SCC(=O)Nc2ccc(C)c(S(=O)(=O)N3CCOCC3)c2)n[nH]c1=O | inconclusive: -38.3% |
| O=C(Nc1ccc(Cl)cc1)C1CCC(=O)N1Cc1ccccc1Cl (stereo unspecified) | active: -90.4% |
| Cc1cc(OCC(=O)NCc2ccccn2)cc(C)c1Br | inconclusive: -58.6% |
| COc1ccc2nc(Nc3nc(-c4cc5ccccc5oc4=O)cs3)sc2c1 | inconclusive: -73.6% |
| CCCCNC(=O)C1CCN(S(=O)(=O)c2c(C)noc2/C=C\c2ccc(OC)cc2)CC1 | inactive: 31.5% |
| CCc1ccc(N2CC(C(=O)Nc3ccc(C)c(S(=O)(=O)N4CCOCC4)c3)CC2=O)cc1 (stereo unspecified) | inconclusive: -30.3% |
| CCOC(=O)c1cnc(SCc2cccc3ccccc23)nc1N | inactive: 1.64% |
| COc1cc(C2C(C#N)=C(N)Oc3cc(N)ccc32)cc(OC)c1OC (stereo unspecified) | active: -89.3% |
| NC(=O)CCN(Cc1ccccc1)S(=O)(=O)c1ccccc1 | inconclusive: -41.5% |
| N=c1c2c(-c3ccccc3)c(-c3ccccc3)n(Cc3ccco3)c2ncn1CCO | inconclusive: -76.8% |
| CCOC(=O)CC(=O)CSc1nc(C)nc2c1oc1ccccc12 | inactive: 35.7% |
| O=C1NCCCC2c3c(cc(Br)c(O)c3Br)OC12N1CCCCC1 (stereo unspecified) | inactive: 5.8% |
| O=C1CC(SCc2nc3ccccc3[nH]2)C(=O)N1c1ccc(Cl)cc1 (stereo unspecified) | inconclusive: -33.7% |
| Nc1nc(CN2CCN(c3ccccn3)CC2)nc(Nc2ccc(Cl)cc2)n1 | inconclusive: -33.2% |

| SMILES | activity change (PNC), negative = inhibition |
| --- | --- |
| CN(C)c1ccc(NC(=O)CSc2nc3c(c(=O)[nH]2)CCCC3)cc1 | inactive: 50% |
| O=C(N/N=C\c1cccc([N+](=O)[O-])c1O)C1COc2ccccc2O1 (stereo unspecified) | inconclusive: -34.2% |
| Cc1cc(C)n2c(=S)[nH]nc2n1 | active: -139% |
| Cc1cc(C)n(-c2nc(NC(C)(C)C)nc(NC(C)(C)C)n2)n1 | inactive: 11.5% |
| CCNC(=S)NNC(=O)c1cc(-c2cc(C)ccc2C)nc2ccccc12 | inactive: 24.5% |
| C=CCN1C(=O)N/C(=C/c2ccc(C)o2)C1=O | inconclusive: -43.1% |
| COc1cccc(C2C3CN(C)CC=C3C(C#N)=C(N)C2(C#N)C#N)c1OC (stereo unspecified) | inconclusive: -56.3% |
| N#CCC(=O)Nc1sc2c(c1C(N)=O)CCCC2 | inactive: 25.3% |
| CCC(=O)N1CCc2cc(S(=O)(=O)N3CCc4ccccc43)ccc21 | inconclusive: -76.9% |
| Cc1ccc(S(=O)(=O)N2CCOCC2)cc1C(=O)NCCN1C(=O)S/C(=C\c2ccccc2Cl)C1=O | inconclusive: -32.8% |
| COc1ccc(CN2CCN(c3ccc(F)cc3)CC2)c(OC)c1OC | inconclusive: -46.1% |
| CCOC(=O)C1=C(C)Nc2nc(SCC)nn2C1c1ccc(OC)cc1 (stereo unspecified) | inactive: 13.2% |
| C/C=C/c1ccc(OCCn2cncn2)c(OC)c1 | inconclusive: -55.1% |
| O=C(c1ccc(COc2ccccc2[N+](=O)[O-])o1)N1CCCCCC1 | inconclusive: -31.6% |
| Cc1cc2n(n1)C(c1cccs1)Nc1ccccc1-2 (stereo unspecified) | inactive: -10.9% |
| Cc1csc(NC(=O)c2sc3nc(-c4cccs4)ccc3c2N)n1 | inconclusive: -41.3% |
| CCn1cc(Br)c(C(=O)Nc2cccc(Cl)c2)n1 | inconclusive: -43.2% |
| CC(=O)N/C(=C/c1ccccc1)C(=O)NCCO | inconclusive: -42.4% |
| CCOC(=O)NC(=O)/C(C#N)=N/Nc1c(F)cccc1F | inconclusive: -32.8% |
| O=C(N/N=C/C1CCCCC1)c1cc(Cl)ccc1O | inactive: -23.3% |
| CC(NC(=O)Cc1ccccc1)c1nc2ccccc2[nH]1 (stereo unspecified) | inconclusive: -45.4% |
| COc1cccc2c1C(=O)C=C(C)C2=O | inconclusive: -62.6% |
| CC(=O)c1ccc(NC(=O)Nc2cccc(Cl)c2)cc1 | inconclusive: -44.5% |

| SMILES | activity change (PNC), negative = inhibition |
| --- | --- |
| Cn1c(=O)c2[nH]c(N3CCOCC3)nc2n(-c2ccccc2)c1=O | inconclusive: -35.4% |
| COCCOc1ccc(C(F)(F)F)cc1NC(=O)c1ccccc1F | inconclusive: -57.9% |
| Cc1nn(C)cc1CNC(=O)c1cnn2c1NC(c1ccc(Br)cc1)CC2C(F)(F)F (stereo unspecified) | inactive: -4.75% |
| O=C(Nc1ccc(Br)cc1F)c1ccc2c(c1)N(Cc1ccccc1)C(=O)CS2=O (stereo unspecified) | inconclusive: -38.6% |
| O=C(CSc1ccccn1)N1CCN(C(=O)CSc2ccccn2)CC1 | inconclusive: -35.2% |
| N/C(=N\OC(=O)N1c2ccccc2Sc2ccccc21)c1ccccc1 | inconclusive: -32.8% |
| CC1CCCCC1NC(=O)c1cn(C)c2ccc(S(=O)(=O)N3CCCC3)cc2c1=O (stereo unspecified) | inactive: -15% |
| CNC(=O)c1ccc2c(c1)nnn2C | inconclusive: -59.1% |
| C=CCNC(=O)c1cc(-c2ccc(Br)cc2)on1 | inconclusive: -41.6% |
| COc1ccc(C(=O)Nc2cc(Cl)ccc2OC(=O)c2ccc(OC)cc2)cc1 | inactive: -12.2% |
| OCC1N=C(c2ccccn2)OC1c1ccccc1 (stereo unspecified) | inconclusive: -40.9% |
| CCCC(C)n1[nH]c(=O)cc1N (stereo unspecified) | inactive: -28.2% |
| CCOc1ccc(NC(=O)CCN2CCN(c3ccccc3OC)CC2)cc1 | inconclusive: -66.7% |
| CN1C(=O)/C(=C2\SC(N3CCCCCC3)=NC2=O)c2ccccc21 | inactive: -14.6% |
| CCc1cccc(CC)c1NC(=O)CSc1nnc(C(C)C)n1CC | inconclusive: -60.4% |
| CS(=O)(=O)c1sc2nc(-c3cccs3)cc(-c3ccccc3)c2c1N | inactive: -27% |
| CCn1cc(C2=NCCO2)c2ccccc21 | inconclusive: -34.5% |
| Brc1ccccc1-c1nc(-c2ccccc2)no1 | inconclusive: -35.3% |
| Cc1cccc(C)c1NCc1nnc(SCC(=O)Nc2nc(-c3ccccc3)cs2)n1-c1ccccc1 | inconclusive: -36.1% |
| O=C(CCN1C(=O)/C(=C\c2cccs2)SC1=S)Nc1nccs1 | inconclusive: -74.7% |
| Cn1cccc1CC(=O)N/N=C\c1cccs1 | inactive: 9.26% |
| CCc1ccc2nc(N3CCN(C)CC3)c(C#N)cc2c1 | inconclusive: -38% |

Gathered by group: those above with a CF3 group.

| SMILES | activity change (PNC), negative = inhibition |
| --- | --- |
| COCCOc1ccc(C(F)(F)F)cc1NC(=O)c1ccccc1F | inconclusive: -57.9% |
| Cc1nn(C)cc1CNC(=O)c1cnn2c1NC(c1ccc(Br)cc1)CC2C(F)(F)F (stereo unspecified) | inactive: -4.75% |
